According to publication PMC5727183:
No constants are given. Whether binding was seen depends on the method and setting. Binding seen in cells or lysates may run through a third protein. Some binding calls cover weakened binding; strength is not graded here. For some assays here: Where a sequence is shown, tags or fusion partners need not be part of it.

Amino acid sequences for entries named in this document (tags omitted). Residues count along the entry.
UniProt P55854, residues 1-92: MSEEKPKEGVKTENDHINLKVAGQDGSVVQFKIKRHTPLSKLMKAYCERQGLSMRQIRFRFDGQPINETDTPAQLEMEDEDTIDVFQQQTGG
UniProt Q5UIP0: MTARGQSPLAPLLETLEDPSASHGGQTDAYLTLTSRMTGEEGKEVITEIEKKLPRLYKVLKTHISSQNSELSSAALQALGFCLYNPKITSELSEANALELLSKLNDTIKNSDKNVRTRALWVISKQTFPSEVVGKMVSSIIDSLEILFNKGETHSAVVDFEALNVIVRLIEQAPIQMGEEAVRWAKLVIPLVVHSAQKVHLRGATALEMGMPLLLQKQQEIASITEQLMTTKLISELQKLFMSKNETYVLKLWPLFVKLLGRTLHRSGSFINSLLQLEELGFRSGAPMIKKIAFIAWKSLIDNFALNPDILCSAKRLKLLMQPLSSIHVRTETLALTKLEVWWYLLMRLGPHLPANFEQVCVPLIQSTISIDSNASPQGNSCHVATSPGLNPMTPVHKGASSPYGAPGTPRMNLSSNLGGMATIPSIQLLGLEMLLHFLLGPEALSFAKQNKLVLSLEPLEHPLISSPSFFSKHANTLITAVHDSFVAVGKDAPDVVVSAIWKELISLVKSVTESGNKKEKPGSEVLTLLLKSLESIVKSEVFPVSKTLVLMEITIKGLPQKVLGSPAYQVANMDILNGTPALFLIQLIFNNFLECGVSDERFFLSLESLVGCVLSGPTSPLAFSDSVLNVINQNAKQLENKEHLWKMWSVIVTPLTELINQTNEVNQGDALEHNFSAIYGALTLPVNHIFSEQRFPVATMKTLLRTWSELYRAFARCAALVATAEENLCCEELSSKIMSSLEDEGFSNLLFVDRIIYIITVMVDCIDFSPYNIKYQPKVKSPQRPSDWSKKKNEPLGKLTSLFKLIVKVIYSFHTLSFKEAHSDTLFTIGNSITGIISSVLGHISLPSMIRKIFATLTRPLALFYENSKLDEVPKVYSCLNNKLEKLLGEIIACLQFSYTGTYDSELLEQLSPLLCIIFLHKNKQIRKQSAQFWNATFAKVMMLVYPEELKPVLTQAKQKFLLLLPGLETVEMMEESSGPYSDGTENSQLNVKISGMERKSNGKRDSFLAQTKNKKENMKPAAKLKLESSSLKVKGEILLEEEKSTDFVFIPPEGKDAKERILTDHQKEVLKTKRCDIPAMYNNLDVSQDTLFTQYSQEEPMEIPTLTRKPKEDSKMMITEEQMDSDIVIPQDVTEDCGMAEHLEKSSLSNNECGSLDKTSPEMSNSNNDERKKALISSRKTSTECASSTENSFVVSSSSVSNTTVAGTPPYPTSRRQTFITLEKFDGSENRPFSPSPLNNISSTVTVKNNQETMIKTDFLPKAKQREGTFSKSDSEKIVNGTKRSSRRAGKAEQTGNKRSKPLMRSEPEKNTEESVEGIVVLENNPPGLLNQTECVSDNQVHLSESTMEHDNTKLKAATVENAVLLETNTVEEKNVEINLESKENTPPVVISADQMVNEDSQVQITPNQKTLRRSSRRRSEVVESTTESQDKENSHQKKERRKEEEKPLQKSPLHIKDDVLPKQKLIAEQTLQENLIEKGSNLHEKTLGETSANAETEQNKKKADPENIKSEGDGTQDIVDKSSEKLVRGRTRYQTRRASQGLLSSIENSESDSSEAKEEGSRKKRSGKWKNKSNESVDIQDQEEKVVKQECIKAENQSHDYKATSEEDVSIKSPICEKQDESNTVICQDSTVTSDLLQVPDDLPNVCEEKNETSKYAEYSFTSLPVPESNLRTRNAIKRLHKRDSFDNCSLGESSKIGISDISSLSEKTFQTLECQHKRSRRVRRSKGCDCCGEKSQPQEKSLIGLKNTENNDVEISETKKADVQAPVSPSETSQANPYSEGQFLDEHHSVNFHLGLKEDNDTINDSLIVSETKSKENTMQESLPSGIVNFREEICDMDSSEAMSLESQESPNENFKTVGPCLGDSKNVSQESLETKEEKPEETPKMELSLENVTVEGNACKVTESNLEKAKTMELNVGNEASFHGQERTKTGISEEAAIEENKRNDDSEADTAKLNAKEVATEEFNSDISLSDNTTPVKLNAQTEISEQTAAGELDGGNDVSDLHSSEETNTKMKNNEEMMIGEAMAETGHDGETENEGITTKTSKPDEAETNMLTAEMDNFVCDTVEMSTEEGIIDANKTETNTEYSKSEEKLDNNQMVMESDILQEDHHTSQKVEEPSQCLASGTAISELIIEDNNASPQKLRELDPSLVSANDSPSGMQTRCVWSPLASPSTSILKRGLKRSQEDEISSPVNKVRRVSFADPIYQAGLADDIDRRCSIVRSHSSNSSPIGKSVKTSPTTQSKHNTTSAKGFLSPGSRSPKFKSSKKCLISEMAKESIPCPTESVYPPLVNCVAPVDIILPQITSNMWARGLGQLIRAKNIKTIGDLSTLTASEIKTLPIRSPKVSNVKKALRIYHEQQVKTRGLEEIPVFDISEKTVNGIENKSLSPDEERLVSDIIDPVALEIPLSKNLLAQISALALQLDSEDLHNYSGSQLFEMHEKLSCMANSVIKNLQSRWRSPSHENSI

Legend:
[1] = biological target: T1, FLAG-PIAS4 (UniProt Q8N2W9); experiment: co-IP; Flag-IP from U2OS cells transiently transfected with FLAG-PIAS4 and synchronized at G1, S and G2 (double thymidine block and release), with or without DNA damage; blot with RIF1 antibody
T1 sequence: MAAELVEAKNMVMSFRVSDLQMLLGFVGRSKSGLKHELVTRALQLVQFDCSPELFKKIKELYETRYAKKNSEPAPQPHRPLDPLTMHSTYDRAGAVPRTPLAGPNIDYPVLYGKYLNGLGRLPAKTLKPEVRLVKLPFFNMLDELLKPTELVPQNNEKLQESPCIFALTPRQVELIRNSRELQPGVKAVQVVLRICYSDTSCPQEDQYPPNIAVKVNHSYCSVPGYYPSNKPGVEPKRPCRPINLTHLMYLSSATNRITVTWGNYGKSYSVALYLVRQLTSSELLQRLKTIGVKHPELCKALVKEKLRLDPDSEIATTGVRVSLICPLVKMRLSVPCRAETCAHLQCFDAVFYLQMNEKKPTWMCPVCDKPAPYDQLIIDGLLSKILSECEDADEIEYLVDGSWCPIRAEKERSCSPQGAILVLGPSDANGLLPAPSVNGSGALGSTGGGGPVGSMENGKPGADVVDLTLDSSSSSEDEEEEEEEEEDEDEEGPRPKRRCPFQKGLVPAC

[2] = biological target: RFP-SUMO3 (UniProt P55854); experiment: co-IP; RFP-Trap A beads (Chromotek) on lysates of U2OS cells transfected with RFP-SUMO2, RFP-SUMO3 or RFP empty vector, mock or 2.5 µg/ml bleocin; EBC buffer (50 mM Tris pH 7.3, 0.5% NP-40, 1 mM MgCl2, 50 mM iodoacetamide), Benzonase, NaCl brought to 300 mM; blot with RIF1 antibody

- binding [2]: binds
Substance: RIF1 (from UniProt Q5UIP0 1-2472)
- binding [1]: binds
